The experiment deals with KIAA0101 protein containing the wt KEN box (HA-wt-KIAA0101) (human) (UniProt Q15004). Briefly: co-IP; lysates of SK-MES-1 cells transfected 48 h with HA-KIAA0101 (wt or mutant KEN box); precleared, precipitated with anti-HA antibody (2 ug/ml) and protein A or G agarose/Sepharose beads, 2 h at room temperature or overnight at 4 °C; washed with PBS; western blotting. A general note: Immunoblotting shows a protein as a band on a membrane.

Chains of the proteins cited; added tags and fusions are not shown.
UniProt Q15004: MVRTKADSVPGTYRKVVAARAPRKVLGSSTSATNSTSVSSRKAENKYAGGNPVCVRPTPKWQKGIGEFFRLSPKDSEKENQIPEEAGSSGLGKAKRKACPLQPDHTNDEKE
UniProt O00762: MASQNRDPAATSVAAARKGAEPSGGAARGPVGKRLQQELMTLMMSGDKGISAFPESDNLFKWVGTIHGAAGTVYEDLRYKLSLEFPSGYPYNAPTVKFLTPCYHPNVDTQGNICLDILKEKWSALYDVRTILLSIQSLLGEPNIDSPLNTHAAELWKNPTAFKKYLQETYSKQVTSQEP

Results are given in words; binding and its absence hold for the method and conditions named. Binding seen in cells or lysates may run through a third protein. Some entries that bind do so weakly or less than the wild type.

For “UbcH10 (from UniProt O00762 1-179) (enzyme)”, the binding entry is “binds”.

For the origin of these results see publication PMC7532574.
